Laboratory results: paper PMC8959600 (eLife, 2022)

Columns and labels:
[1] = paediatric population, Tebipenem-Pivoxil PO; ref Sato et al., 2008; cited from earlier work
S. flexneri 2457T = test: Gnotobiotic piglet Shigella infection model, efficacy; format: in vivo; conditions: infected gnotobiotic piglets, 50 mg/kg oral, p < 0.001 for AUC of score plots

In the case of `C[C@@H](O)[C@H]1C(=O)N2C(C(=O)OCOC(=O)C(C)(C)C)=C(SC3CN(C4=NCCS4)C3)[C@H](C)[C@H]12` [Tebipenem pivoxil], the AUC0-tlast [1] is listed as 16100 ± 3300 ng·h/mL, the Cmax [1] is listed as 7500 ± 3900 ng/mL and the Tmax [1] is listed as 42 ± 12 min. The “severity of diarrhoea and frequency of diarrheal stools vs control animals” value (S. flexneri 2457T) was “significantly reduced”.
